Results from patent US9561239B2, “Compositions and methods for inhibiting norovirus infection” (Children's Hospital Medical Center, priority 2013, dated 2017).
Some results were stated once for a whole list of compounds, not compound by compound. At least one structure is not confirmed: it was looked up by name or label, or the drawing left a doubt.

Chains of the proteins cited; added tags and fusions are not shown. Residues count along the entry.
UniProt Q913Z3, 214-539: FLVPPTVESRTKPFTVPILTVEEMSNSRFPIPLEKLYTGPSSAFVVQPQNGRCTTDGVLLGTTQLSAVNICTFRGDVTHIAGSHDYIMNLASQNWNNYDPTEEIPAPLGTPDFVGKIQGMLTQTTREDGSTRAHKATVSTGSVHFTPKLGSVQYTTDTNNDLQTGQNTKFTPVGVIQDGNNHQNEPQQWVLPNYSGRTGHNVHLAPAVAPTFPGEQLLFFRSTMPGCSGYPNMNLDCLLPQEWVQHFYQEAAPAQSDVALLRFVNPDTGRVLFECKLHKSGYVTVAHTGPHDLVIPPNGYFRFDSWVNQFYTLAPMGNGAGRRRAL

Target: P dimers of VA387 (GII.4) binding to saliva HBGAs (Norovirus GII.4 (Human calicivirus NLV/VA98387/1998), UniProt Q913Z3)
Experiment: Saliva-based NoV/HBGA blocking assay
Set-up: species or system Norovirus VA387 (GII.4)
Settings: blocking the binding of NoV P dimer to HBGAs; given as range or bound
Method: Saliva-based NoV-HBGA binding assays were performed as described previously using P dimers of VA387 (GII.4) as NoV surrogates and saliva samples and/or synthetic oligosaccharides as HBGA sources. Briefly, synthetic oligosaccharides and/or boiled saliva samples with defined HBGAs phenotype were coated on 96-well microtiter plates, after blocking with nonfat milk, P dimer of VA387 were added. The bound P dimer was detected using a guinea pig antiserum against NoVs VLPs, followed by the addition of horseradish peroxidase (HRP)-conjugated goat anti-guinea pig IgG. The bound HRP conjugates were colorized by the TMB kit (Kirkegaard & Perry Laboratories), which was read an EIA spectrum reader (Tecan). The synthetic oligosaccharide-PAA conjugates (2 μg/ml, GlycoTech Corporation, Rockville, Md.) were captured to a microtiter plate through coated streptavidin (5 μg/ml).
Blocking effects of the hit compounds were measured by a pre-incubation of the P dimers with the compounds at given concentrations for 30 min before the P dimers were added to the coated saliva samples or HBGA oligosaccharides in a binding assay. The blocking activity of a compound was defined as its concentration yielding 50% inhibition (IC50) in the binding assay. […]

Question: For `CC1CCc2c(sc3ncn(C(C)C(=O)N/N=C/c4c(O)ccc5ccccc45)c(=O)c23)C1` (stereo not shown) [Compound 9], which IC50 is on record?
Answer: 10 to 20 µM
